In assay [1] the target is unmodified histone H3 peptide aa1–20 (peptide 1) (UniProt P68431). The assay can be described thus: affinity purification with mass spectrometry; biotinylated histone H3 peptides on NeutrAvidin beads; pooled nuclear and MNase-solubilised chromatin extracts of SILAC-labelled MPC11 cells adjusted to 150 mM NaCl, 4°C; washes with 150 mM KCl, 0.2% Triton X-100; heavy pulldowns against a mixed light reference (super-SILAC); beads alone as control; two replicates; only the target purified.

Protein sequences, listed by entry. Tags and fused reporters are not part of them.
UniProt Q61687: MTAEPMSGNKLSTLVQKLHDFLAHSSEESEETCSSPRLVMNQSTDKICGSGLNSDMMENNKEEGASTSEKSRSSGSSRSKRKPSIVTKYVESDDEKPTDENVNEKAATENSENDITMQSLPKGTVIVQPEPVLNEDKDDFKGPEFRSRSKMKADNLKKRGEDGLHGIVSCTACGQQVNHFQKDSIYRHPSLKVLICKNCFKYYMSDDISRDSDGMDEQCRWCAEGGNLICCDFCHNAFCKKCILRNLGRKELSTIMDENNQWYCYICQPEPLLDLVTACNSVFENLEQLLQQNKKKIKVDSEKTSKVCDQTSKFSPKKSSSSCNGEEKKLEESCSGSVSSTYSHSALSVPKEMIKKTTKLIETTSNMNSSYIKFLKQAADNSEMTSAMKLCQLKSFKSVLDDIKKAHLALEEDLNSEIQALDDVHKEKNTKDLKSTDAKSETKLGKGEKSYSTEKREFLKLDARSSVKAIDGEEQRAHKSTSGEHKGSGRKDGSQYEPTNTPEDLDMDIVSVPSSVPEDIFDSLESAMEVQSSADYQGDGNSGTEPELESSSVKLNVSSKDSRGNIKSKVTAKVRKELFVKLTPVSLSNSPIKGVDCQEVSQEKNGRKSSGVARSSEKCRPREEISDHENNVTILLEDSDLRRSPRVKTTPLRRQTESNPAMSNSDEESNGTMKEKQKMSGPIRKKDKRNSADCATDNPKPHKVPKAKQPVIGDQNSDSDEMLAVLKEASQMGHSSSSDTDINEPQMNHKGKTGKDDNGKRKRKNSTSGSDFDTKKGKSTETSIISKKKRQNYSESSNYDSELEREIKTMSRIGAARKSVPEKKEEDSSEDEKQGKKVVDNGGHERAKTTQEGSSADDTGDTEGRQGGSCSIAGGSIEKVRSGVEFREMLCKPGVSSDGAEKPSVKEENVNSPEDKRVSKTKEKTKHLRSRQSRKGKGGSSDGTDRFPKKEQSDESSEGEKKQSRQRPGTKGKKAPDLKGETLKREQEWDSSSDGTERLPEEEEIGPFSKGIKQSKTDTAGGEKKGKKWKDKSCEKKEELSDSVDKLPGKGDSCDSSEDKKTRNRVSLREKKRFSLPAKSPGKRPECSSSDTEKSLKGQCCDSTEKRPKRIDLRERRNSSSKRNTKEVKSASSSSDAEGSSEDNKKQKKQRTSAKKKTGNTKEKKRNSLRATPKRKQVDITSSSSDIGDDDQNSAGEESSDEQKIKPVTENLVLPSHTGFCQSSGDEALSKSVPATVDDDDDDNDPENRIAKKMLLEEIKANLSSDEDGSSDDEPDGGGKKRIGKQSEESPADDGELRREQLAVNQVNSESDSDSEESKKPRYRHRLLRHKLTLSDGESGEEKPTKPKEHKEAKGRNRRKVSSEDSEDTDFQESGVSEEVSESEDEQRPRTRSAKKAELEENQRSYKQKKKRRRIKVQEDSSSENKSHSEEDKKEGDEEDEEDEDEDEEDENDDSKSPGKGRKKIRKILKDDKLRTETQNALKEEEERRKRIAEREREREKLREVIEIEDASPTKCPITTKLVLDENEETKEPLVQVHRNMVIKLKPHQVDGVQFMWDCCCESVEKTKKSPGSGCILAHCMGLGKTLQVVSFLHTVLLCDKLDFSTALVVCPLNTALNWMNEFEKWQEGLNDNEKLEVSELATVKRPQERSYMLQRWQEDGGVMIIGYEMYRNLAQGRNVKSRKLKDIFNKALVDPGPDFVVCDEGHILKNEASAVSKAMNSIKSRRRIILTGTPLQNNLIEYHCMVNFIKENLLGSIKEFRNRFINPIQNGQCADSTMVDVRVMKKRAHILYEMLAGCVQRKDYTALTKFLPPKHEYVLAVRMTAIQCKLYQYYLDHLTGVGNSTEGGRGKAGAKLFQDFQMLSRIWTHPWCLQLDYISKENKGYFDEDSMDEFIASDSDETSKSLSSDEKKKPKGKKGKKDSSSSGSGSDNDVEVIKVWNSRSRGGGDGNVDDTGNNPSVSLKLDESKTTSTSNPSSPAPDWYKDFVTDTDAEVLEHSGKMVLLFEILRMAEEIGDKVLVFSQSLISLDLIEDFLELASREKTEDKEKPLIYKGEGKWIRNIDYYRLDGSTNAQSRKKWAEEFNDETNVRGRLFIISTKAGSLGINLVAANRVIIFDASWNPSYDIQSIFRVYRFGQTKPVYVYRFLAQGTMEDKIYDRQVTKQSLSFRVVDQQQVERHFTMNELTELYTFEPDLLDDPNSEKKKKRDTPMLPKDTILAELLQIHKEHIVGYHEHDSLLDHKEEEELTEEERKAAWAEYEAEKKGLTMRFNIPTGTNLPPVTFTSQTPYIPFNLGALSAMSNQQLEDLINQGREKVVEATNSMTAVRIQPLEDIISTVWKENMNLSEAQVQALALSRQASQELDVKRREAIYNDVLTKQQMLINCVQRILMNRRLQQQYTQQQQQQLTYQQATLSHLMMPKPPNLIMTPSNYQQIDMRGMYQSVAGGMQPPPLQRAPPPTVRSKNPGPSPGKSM

In assay [2] the target is Atrx (mouse (endogenous in MPC11)) (UniProt Q61687). The assay can be described thus: affinity purification with mass spectrometry; immunoprecipitation of the endogenous bait with 5 μg antibody on protein G Dynabeads, 4 h, 4°C, 150 mM NaCl, 0.2% Triton X-100 washes; heavy-labelled MPC11 nuclear extracts against light isotype-control IP; SILAC H/L by mass spectrometry.

Results are given in words; binding and its absence hold for the method and conditions named. In cells and extracts the contact can be indirect. A yes stands for co-enrichment or nearness to the bait. Other partners may have been found.

B1: Sin3a (protein, UniProt Q60520 1-1274)
chain: MKRRLDDQESPVYAAQQRRIPGSTEAFSHQHRVLAPAPPVYEAVSETMQSATGIQYSVAPNYQVSAVPQSSGSHGPAIAAVHSSHHHPTAVQPHGGQVVQSHAHPAPPVAPVQGQQQFQRLKVEDALSYLDQVKLQFGSQPQVYNDFLDIMKEFKSQSIDTPGVISRVSQLFKGHPDLIMGFNTFLPPGYKIEVQTNDMVNVTTPGQVHQIPTHGIQPQPQPPPQHPSQPSSQSAPTPAQPAPQPTAAKVSKPSQLQAHTPASQQTPPLPPYASPRSPPVQPHTPVTISLGTAPSLQNNQPVEFNHAINYVNKIKNRFQGQPDIYKAFLEILHTYQKEQRNAKEAGGNYTPALTEQEVYAQVARLFKNQEDLLSEFGQFLPDANSSVLLSKTTAEKVDSVRNDHGGTVKKPQLNNKPQRPSQNGCQIRRHSGTGATPPVKKKPKLMSLKESSMADASKHGVGTESLFFDKVRKALRSAEAYENFLRCLVIFNQEVISRAELVQLVSPFLGKFPELFNWFKNFLGYKESVHLESFPKERATEGIAMEIDYASCKRLGSSYRALPKSYQQPKCTGRTPLCKEVLNDTWVSFPSWSEDSTFVSSKKTQYEEHIYRCEDERFELDVVLETNLATIRVLEAIQKKLSRLSAEEQAKFRLDNTLGGTSEVIHRKALQRIYADKAADIIDGLRKNPSIAVPIVLKRLKMKEEEWREAQRGFNKVWREQNEKYYLKSLDHQGINFKQNDTKVLRSKSLLNEIESIYDERQEQATEENAGVPVGPHLSLAYEDKQILEDAAALIIHHVKRQTGIQKEDKYKIKQIMHHFIPDLLFAQRGDLSDVEEEEEEEMDVDEATGAPKKHNGVGGSPPKSKLLFSNTAAQKLRGMDEVYNLFYVNNNWYIFMRLHQILCLRLLRICSQAERQIEEENREREWEREVLGIKRDKSDSPAIQLRLKEPMDVDVEDYYPAFLDMVRSLLDGNIDSSQYEDSLREMFTIHAYIAFTMDKLIQSIVRQLQHIVSDEVCVQVTDLYLAENNNGATGGQLNSQTSRSLLESAYQRKAEQLMSDENCFKLMFIQSQGQVQLTVELLDTEEENSDDPVEAERWSDYVERYMSSDTTSPELREHLAQKPVFLPRNLRRIRKCQRGREQQEKEGKEGNSKKTMENVESLDKLECRFKLNSYKMVYVIKSEDYMYRRTALLRAHQSHERVSKRLHQRFQAWVDKWTKEHVPREMAAETSKWLMGEGLEGLVPCTTTCDTETLHFVSINKYRVKYGTVFKAP
Consider B1, for which the binding entry in assay [1] is recorded as “binds”.

B2: Tif1γ (protein, UniProt Q99PP7 1-1142)
chain: MAENKGGGEAESGGGGSGSAPVTAGAAGPTAQEAEPPLAAVLVEEEEEEGGRAGAEGGAAGPDDGGVAAASSSSAPAASVPAASVGSAVPGGAASTPAPAAAPAPAPAPAPAPAPAPAPAPAPGSSSGPPLGPPASLLDTCAVCQQSLQSRREAEPKLLPCLHSFCLRCLPEPERQLSVPIPGGSNGDVQQVGVIRCPVCRQECRQIDLVDNYFVKDTSEAPSSSDEKSEQVCTSCEDNASAVGFCVECGEWLCKTCIEAHQRVKFTKDHLIRKKEDVSESVGTSGQRPVFCPVHKQEQLKLFCETCDRLTCRDCQLLEHKEHRYQFLEEAFQNQKGAIENLLAKLLEKKNYVHFAATQVQNRIKEVNETNKRVEQEIKVAIFTLINEINKKGKSLLQQLENVTKERQMKLLQQQNDITGLSRQVKHVMNFTNWAIASGSSTALLYSKRLITFQLRHILKARCDPVPAANGAIRFHCDPTFWAKNVVNLGNLVIESKPAPGYTPNVVVGQVPPGTNHISKTPGQINLAQLRLQHMQQQVYAQKHQQLQQMRLQQPPAPIPTTTATTQQHPRQAAPQMLQQQPPRLISVQTMQRGNMNCGAFQAHQMRLAQNAARIPGIPRHSAPQYSMMQPHLQRQHSNPGHAGPFPVVSAHNPINPTSPTTATMANANRGPTSPSVTAIELIPSVTNPENLPSLPDIPPIQLEDAGSSSLDNLLSRYISGSHLPPQPTSTMNPSPGPSALSPGSSGLSNSHTPVRPPSTSSTGSRGSCGSSGRTAEKSAHSFKSDQVKVKQEPGTEEEICSFSGAVKQEKTEDGRRSACMLSSPESSLTPPLSTNLHLESELDTLTGLENHVKTEPTDISESCKQSGLSNLVNGKSPIRNLMHRSARIGGDGNSKDDDPNEDWCAVCQNGGDLLCCEKCPKVFHLTCHVPTLLSFPSGDWICTFCRDIGKPEVEYDCDNMQHSKKGKTAQGLSPVDQRKCERLLLYLYCHELSIEFQEPVPVSIPNYYKIIKKPMDLSTVKKKLQKKHSQHYQIPDDFVADVRLIFKNCERFNEMMKVVQVYADTQEINLKGDSEVAKAGKAVALYFEDKLSEIYSDRTFTPLPEFEQDEDDGEVTEDSDEDFIQPRRKRLKSDERPVHIK
Take B2: the binding entry in assay [2] is given as “binds”.

B3: Tif1α (protein, UniProt Q64127 1-1051)
chain: MEVAVEKAAAAAAPAGGPAAAAPSGENEAESRQGPDSESGGEASRLNLLDTCAVCHQNIQSRVPKLLPCLHSFCQRCLPAPQRYLMLTAPALGSAETPPPAPAPAPAPGSPAGGPSPFATQVGVIRCPVCSQECAERHIIDNFFVKDTTEVPSSTVEKSNQVCTSCEDNAEANGFCVECVEWLCKTCIRAHQRVKFTKDHTVRQKEEVSPEAVGVTSQRPVFCPFHKKEQLKLYCETCDKLTCRDCQLLEHKEHRYQFIEEAFQNQKVIIDTLITKLMEKTKYIKYTGNQIQNRIIEINQNQKQVEQDIKVAIFTLMVEINKKGKALLHQLESLAKDHRMKLMQQQQEVAGLSKQLEHVMHFSKWAVSSGSSTALLYSKRLITYRLRHLLRARCDASPVTNTTIQFHCDPSFWAQNIINLGSLVIEDKESQPQMPKQNPVVEQSSQPPGGLPSNQLSKFPTQISLAQLRLQHIQQQVMAQRQQVQRRPAPVGLPNPRMQGPIQQPSISHQHPPPRLINFQNHSPKPNGPVLPPYPQQLRYSPSQNVPRQTTIKPNPLQMAFLAQQAIKQWQISSVQAPPTTASSSSSTPSSPTITSAAGYDGKAFSSPMIDLSAPVGGSYNLPSLPDIDCSSTIMLDNIARKDTGVDHAQPRPPSNRTVQSPNSSVPSPGLAGPVTMTSVHPPIRSPSASSVGSRGSSGSSSKPAGADSTHKVPVVMLEPIRIKQENSGPPENYDFPVVIVKQESDEESRPQNTNYPRSILTSLLLNSSQSSASEETVLRSDAPDSTGDQPGLHQENSSNGKSEWSDASQKSPVHVGETRKEDDPNEDWCAVCQNGGELLCCEKCPKVFHLTCHVPTLTNFPSGEWICTFCRDLSKPEVDYDCDVPSHHSEKRKSEGLTKLTPIDKRKCERLLLFLYCHEMSLAFQDPVPLTVPDYYKIIKNPMDLSTIKKRLQEDYCMYTKPEDFVADFRLIFQNCAEFNEPDSEVANAGIKLESYFEELLKNLYPEKRFPKVEFRHEAEDCKFSDDSDDDFVQPRKKRLKSTEDRQLLK
On to B3, for which the binding result in assay [2] is “binds”.

The values are drawn from article PMC4330348.
